Test results: PMC7819943, “Rice protein-binding microarrays: a tool to detect cis-acting elements near promoter regions in rice”
The list shows a part of the results.

target: T1, OsSMF1 (Oryza sativa, UniProt Q6ZLB0 1-436); assay: protein-binding microarray (RPBM); PBS, 2% BSA, 51.3 ng/ul salmon testes DNA, 50 uM zinc acetate, 200 nM TF, 25 C, 1 h; high values mean tight binding; details: protein: recombinant; tags: N-terminal polyhistidine and DsRed monomer fusion (pET32a); chain copies: 2; label: CyDye5-dUTP incorporated in the synthesized complementary strand; 3' TTTTT single-stranded linker to array surface; dsDNA, one strand shown
T1 sequence: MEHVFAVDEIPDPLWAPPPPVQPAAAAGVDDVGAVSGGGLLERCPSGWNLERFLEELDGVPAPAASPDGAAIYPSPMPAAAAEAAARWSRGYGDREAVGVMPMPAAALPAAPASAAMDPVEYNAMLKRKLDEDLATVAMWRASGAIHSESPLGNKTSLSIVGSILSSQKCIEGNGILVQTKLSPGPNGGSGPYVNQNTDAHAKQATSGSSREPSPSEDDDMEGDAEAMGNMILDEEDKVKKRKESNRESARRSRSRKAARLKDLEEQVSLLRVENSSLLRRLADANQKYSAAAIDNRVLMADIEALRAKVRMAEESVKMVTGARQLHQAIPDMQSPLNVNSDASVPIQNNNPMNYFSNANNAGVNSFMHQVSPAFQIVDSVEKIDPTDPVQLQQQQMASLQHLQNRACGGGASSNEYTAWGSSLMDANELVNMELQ
In short: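 Polyhistidine-tagged DsRed fusions of transcription factors, joined at the N-terminus, were expressed in E. coli BL21-CodonPlus and isolated on Ni–NTA. They were incubated at 200 nM for 1 h at 25 °C on a custom Agilent array, double-stranded and BSA-blocked, in PBS with 2% BSA, salmon testes DNA and 50 µM zinc acetate. The binding signal is per-feature fluorescence intensity (arbitrary units) read on an Axon 4000B scanner after washing.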

Sequence	binding signal
TCCATCCAGGGAAAGGGTAGGGGAAGGTGGCAATGAGGATCGGAGTCACCTAGTGCAG	12200 fluorescence intensity (a.u.)
AATACTCATAGTCATAGTCATGCATCCACGACTCTATCATCGGAGTCACCTAGTGCAG	4740 fluorescence intensity (a.u.)
GGGCCGGGCTGCACGTCATCTCTCACCTTACCTGCGATTTCGGAGTCACCTAGTGCAG	10000 fluorescence intensity (a.u.)
TAATATGATATTTTAGAGCAACTTTCATACAGAGAGTTTTCGGAGTCACCTAGTGCAG	3370 fluorescence intensity (a.u.)
CTACTACTACCACGCAGCGGGTGACACACACACACACAAACGGAGTCACCTAGTGCAG	5000 fluorescence intensity (a.u.)
AGCAGCAAGCCCATGAAAGAAATGCAGCTTGGTAGGATAGCGGAGTCACCTAGTGCAG	28500 fluorescence intensity (a.u.)
AAAGCCGTCGTATTGTCATCCGCCGCTCGCTGACTCATTCCGGAGTCACCTAGTGCAG	13700 fluorescence intensity (a.u.)
GTCTTCCCGTGTCATCGTCGCCGTCATACACGCCAGCCCGCGGAGTCACCTAGTGCAG	8200 fluorescence intensity (a.u.)
CGTCAGCCTGCAATCGCTTTCTGGGCCCAATAGTACGGGCCGGAGTCACCTAGTGCAG	8490 fluorescence intensity (a.u.)
GCGTGGCATCTGGCATGTGAGGTGGCTGGCCGGCTTGGTCCGGAGTCACCTAGTGCAG	3960 fluorescence intensity (a.u.)
TGATGTTTATCAACAGTGTCTCATAAATTACGATATTATTCGGAGTCACCTAGTGCAG	28800 fluorescence intensity (a.u.)
GATTCATAGTCCTAGAATAAAATCTCATCTTAGATTGCTACGGAGTCACCTAGTGCAG	30500 fluorescence intensity (a.u.)
CCCATCGGAGGCAGTTCAAAGGGCTGTGTCAGACTGTTTACGGAGTCACCTAGTGCAG	3740 fluorescence intensity (a.u.)
TCTGGCAAACCCGATGTGACGTCTCGTCCTTCATGGTTCGCGGAGTCACCTAGTGCAG	3200 fluorescence intensity (a.u.)
CAGGTGGTTGTGTGCATATAACAGATACCTTCGATGTGCACGGAGTCACCTAGTGCAG	31300 fluorescence intensity (a.u.)
TCGCTCCGTGCTCGACTCGTGTCTTCCACCTCATTCTCGACGGAGTCACCTAGTGCAG	5890 fluorescence intensity (a.u.)
CGGCCGCGTCGGTCGCCACGTCTCCATCTCCCTCCACACCCGGAGTCACCTAGTGCAG	6940 fluorescence intensity (a.u.)
AGTTAGTACCTCCTCCTTTGACGGACGCGTCGACCATTTCCGGAGTCACCTAGTGCAG	3760 fluorescence intensity (a.u.)
CTGCATGTTGGTGACTTGTCCAAATCAACAATAGCTCCTACGGAGTCACCTAGTGCAG	20700 fluorescence intensity (a.u.)
TTTTGCGTGCGGGCGGTATAACTTGACCGCGGTCCACTTACGGAGTCACCTAGTGCAG	24600 fluorescence intensity (a.u.)
TATTAAGTCTAATTAATCCATGATTAGCCTATGTGATGCTCGGAGTCACCTAGTGCAG	4030 fluorescence intensity (a.u.)

Sequence	binding signal
AAAAGAACTACGAAAACAAATCGTATGATACAGTTCGTTTCGGAGTCACCTAGTGCAG	3290 fluorescence intensity (a.u.)
ATAGGGAGCTATAAACAGTTAAACACCAGCTTGTCGATTACGGAGTCACCTAGTGCAG	3410 fluorescence intensity (a.u.)
AGATCTGCCACGAGTTGCCGTGTCCACGTTCCACTCTTCTCGGAGTCACCTAGTGCAG	3420 fluorescence intensity (a.u.)
ATCCCATGCGTCTCCAATCGACGCCACGTGCACCTTCTCCCGGAGTCACCTAGTGCAG	12400 fluorescence intensity (a.u.)
AACCAAATATTTTACCACGATGACTACTAGAGTATGGTGTCGGAGTCACCTAGTGCAG	3550 fluorescence intensity (a.u.)
CATGTGCGCACACACACACACAGCTCACTCGCTCACACGACGGAGTCACCTAGTGCAG	3760 fluorescence intensity (a.u.)
TTGCTTCCTCCCTGTCATATGCACAGTAGTTAAACACAGACGGAGTCACCTAGTGCAG	4480 fluorescence intensity (a.u.)
TCAACGAGCCGAGCTCGAGCGAGCTCGTCTGCCCAAGCTCCGGAGTCACCTAGTGCAG	19500 fluorescence intensity (a.u.)
GAGCGAACGGCCGTCTGCCACGTCATTTTCACCGCCCTCTCGGAGTCACCTAGTGCAG	28800 fluorescence intensity (a.u.)
CAGTGACGTGAGGGGACACGTGGCTCGGGCCGACCACTCCCGGAGTCACCTAGTGCAG	14200 fluorescence intensity (a.u.)
CTGTTGTTTATCTCCTGGTGAGTCCTCCTGTCATGTTAGCCGGAGTCACCTAGTGCAG	9740 fluorescence intensity (a.u.)
CCCTCTCCTCTCCGCCACCACGCCACCGTGCTTCCCTCCCCGGAGTCACCTAGTGCAG	3180 fluorescence intensity (a.u.)
GGGATTGTTGATACACGTAAGACTGCTTTCTGTCTATCCCCGGAGTCACCTAGTGCAG	11700 fluorescence intensity (a.u.)
TGCAAGCAGCAAGCGTGTCACTACGTTTACATGACATGCACGGAGTCACCTAGTGCAG	47600 fluorescence intensity (a.u.)
CTACATGTAAAGTCAGCAAGATTGCTGATTTACATGTGTTCGGAGTCACCTAGTGCAG	5360 fluorescence intensity (a.u.)
CTCTCTTCCTCGCCCTCGGCCACCCGGCGCCTCCTTCCCTCGGAGTCACCTAGTGCAG	3650 fluorescence intensity (a.u.)
AAAACTCGAGCTCACGCGCACACGCACGCGACGCGACGCGCGGAGTCACCTAGTGCAG	3610 fluorescence intensity (a.u.)
CTTCCGGTGATGGCCACGTCGCCTGGTGCAGGAGCTGGCACGGAGTCACCTAGTGCAG	4140 fluorescence intensity (a.u.)
CTCCTCGTGACGTCGTCTCCTCCACTCCCTCCAGTGACCACGGAGTCACCTAGTGCAG	6380 fluorescence intensity (a.u.)
ATTTCGTCGAGGCTAGGGTGACATATCTTAAGATTGATGACGGAGTCACCTAGTGCAG	3290 fluorescence intensity (a.u.)
ACGCCAGATTTGTCCAACGTGACGGCTGAGTCAGCGTGGACGGAGTCACCTAGTGCAG	9270 fluorescence intensity (a.u.)

Sequence	binding signal
GCAAACAATTGGCGTCAATGCGTCATGCGCATCAGCGCATCGGAGTCACCTAGTGCAG	7650 fluorescence intensity (a.u.)
AGCATTTCCATCCACCACACGCGTACGTCCCCGTCACGCGCGGAGTCACCTAGTGCAG	7440 fluorescence intensity (a.u.)
TGGACTCCTGTGGGTCTCACGTGTAGTCAAACTTGCCTTGCGGAGTCACCTAGTGCAG	4460 fluorescence intensity (a.u.)
CCGCCTGCGAAAATGGATGATTTTCACCGTCGTTGGTCTGCGGAGTCACCTAGTGCAG	3350 fluorescence intensity (a.u.)
ACAACAAATCCAAGTGTACGTACGTACGTACACCGTGCACCGGAGTCACCTAGTGCAG	3390 fluorescence intensity (a.u.)
GAAGGCTTGTTGCATCACGATCTGAAGTTCGGGTCCATATCGGAGTCACCTAGTGCAG	3990 fluorescence intensity (a.u.)
ATGTTTTATGCACTTGTTTCACTGTCACATCCATTGTATGCGGAGTCACCTAGTGCAG	3770 fluorescence intensity (a.u.)
CATGTGAACCTGTGACTCATCTGATGAGCCTTGCTTGGAGCGGAGTCACCTAGTGCAG	10900 fluorescence intensity (a.u.)
AGATTGCCAATTGTTTAACACGTGTGAGTATTATATGTAACGGAGTCACCTAGTGCAG	3660 fluorescence intensity (a.u.)
TGGCTGACTGCTTGTCAACGTGGATCATCATCATACAGATCGGAGTCACCTAGTGCAG	4880 fluorescence intensity (a.u.)
CGGGTGTACGAGGACTACCCACTGACACGTGGGCCCCACTCGGAGTCACCTAGTGCAG	12400 fluorescence intensity (a.u.)
TTTCACTCTCGCGAACCTTCCACACACAGACTAGGAGCTTCGGAGTCACCTAGTGCAG	32500 fluorescence intensity (a.u.)
CATGACACATCAGCGCCGCGCTGCCACATAGGATCTCGCTCGGAGTCACCTAGTGCAG	14000 fluorescence intensity (a.u.)
GGCGCTGGTATTGATGCGTCATTTTCATCTATTTGCATTTCGGAGTCACCTAGTGCAG	6020 fluorescence intensity (a.u.)
GGTGGAGGACCCGCAGCCGCTGGCGATGGCGTGGATGATGCGGAGTCACCTAGTGCAG	20700 fluorescence intensity (a.u.)
GCCTCCCAGTTCGACAGGTTCATGGACCACGTGTTGCATCCGGAGTCACCTAGTGCAG	5550 fluorescence intensity (a.u.)
TAGAAGTTTCTGAACATGTGTCTGATTATCCTATGCCTGCCGGAGTCACCTAGTGCAG	3280 fluorescence intensity (a.u.)
ATCGAGGTCCCCTGCCCGCACACTTCGCGTCAGCTGCTGCCGGAGTCACCTAGTGCAG	3590 fluorescence intensity (a.u.)
TTGTAGTCGGATCGCCAACGTCACTCCATCCAATCGACTTCGGAGTCACCTAGTGCAG	5780 fluorescence intensity (a.u.)
GGCCCAACACACATGGGCCTCAAGTAAGTGGCAATTCCGTCGGAGTCACCTAGTGCAG	3240 fluorescence intensity (a.u.)
CTATATATACATACCGTGGCCATGGCAGTACGTAAGGCACCGGAGTCACCTAGTGCAG	3260 fluorescence intensity (a.u.)

Sequence	binding signal
CCGCATGCTCCAGGACCAGTTCAACGTCAGCATGAACCACCGGAGTCACCTAGTGCAG	4970 fluorescence intensity (a.u.)
AAAACCCTAGACACCTCCTAGTCATCAATGCCTATGTAGTCGGAGTCACCTAGTGCAG	30500 fluorescence intensity (a.u.)
GGACAAGTGGTGAAGGAGATATCGAGTCGGCGTCATGGCCCGGAGTCACCTAGTGCAG	4300 fluorescence intensity (a.u.)
AAAATCCATTAAAAGGAAAACCTTTGAAAGTCTAATATTTCGGAGTCACCTAGTGCAG	3540 fluorescence intensity (a.u.)
ATGCATGCAGATGACGATCATGACATTGCGTGTTTGAATCCGGAGTCACCTAGTGCAG	3810 fluorescence intensity (a.u.)
TCCAAATTAGCGTCCAAACATCCGATGTGACATGGGCTAACGGAGTCACCTAGTGCAG	3500 fluorescence intensity (a.u.)
AAAACGCCACGTGGTGGTTTAGGAGCGTTTATAGTAAGACCGGAGTCACCTAGTGCAG	23100 fluorescence intensity (a.u.)
AGGTCGATGGCGTCGCGTGGCTCATCCGCCGCTACCAACTCGGAGTCACCTAGTGCAG	3280 fluorescence intensity (a.u.)
AAATACCGTAGTTTTCATCACGTCAGGTACGTGGTAGGTTCGGAGTCACCTAGTGCAG	3340 fluorescence intensity (a.u.)
ACCGGAGCACCGCCGATTCAAACCTGGCCTCGCCGGCGCCCGGAGTCACCTAGTGCAG	3160 fluorescence intensity (a.u.)
GAATGTGTCTTGTGTGGAATATTTTCTTTCCTTCGCTGAGCGGAGTCACCTAGTGCAG	3460 fluorescence intensity (a.u.)
ACAAACATGATAAGGCTGCTATTCGTTGGAAACCGTAATCCGGAGTCACCTAGTGCAG	3290 fluorescence intensity (a.u.)
AATATACTACAATACCACCGTACCACGTATCAAAACAAATCGGAGTCACCTAGTGCAG	3500 fluorescence intensity (a.u.)
GTCCCAGAATCAGCCGCATACGTAGGCGGGCCCCGCAAGTCGGAGTCACCTAGTGCAG	4040 fluorescence intensity (a.u.)
TATCTTAGGCCTCCTCCAACAAGGATGAGTCAGCTAGCTCCGGAGTCACCTAGTGCAG	13100 fluorescence intensity (a.u.)
AAGTCCGCAAGGGCCGCGCGCACGTGGGCGCGGTGCGGGTCGGAGTCACCTAGTGCAG	3910 fluorescence intensity (a.u.)
AACCGTCGACACGCGCGCGACCATTCGATCACTCCACGACCGGAGTCACCTAGTGCAG	3730 fluorescence intensity (a.u.)
ACAACTTACAACTTGTCCTCCAGGGCAAACTTTAGTCGCCCGGAGTCACCTAGTGCAG	24300 fluorescence intensity (a.u.)
TACAACTATACTGAGTATTGTCTAGTCAGTGTTCCCTTAACGGAGTCACCTAGTGCAG	4290 fluorescence intensity (a.u.)
TCATAATATATATATATATATATATATATAGACTGCGTGTCGGAGTCACCTAGTGCAG	5140 fluorescence intensity (a.u.)
GGTGTCACGTAAGCGCCACGTCAGCGAACCGCCCTCCAAACGGAGTCACCTAGTGCAG	26600 fluorescence intensity (a.u.)

2 consecutive entries out of the list so far:
Sequence	binding signal
CTCTCTTCCTCGCCCTCGGCCACCCGGCGCCTCCTTCCCTCGGAGTCACCTAGTGCAG	3650 fluorescence intensity (a.u.)
AAAACTCGAGCTCACGCGCACACGCACGCGACGCGACGCGCGGAGTCACCTAGTGCAG	3610 fluorescence intensity (a.u.)

Three entries picked at random from the list so far, as already listed:
Sequence	binding signal
CGGGTGTACGAGGACTACCCACTGACACGTGGGCCCCACTCGGAGTCACCTAGTGCAG	12400 fluorescence intensity (a.u.)
TGGACTCCTGTGGGTCTCACGTGTAGTCAAACTTGCCTTGCGGAGTCACCTAGTGCAG	4460 fluorescence intensity (a.u.)
CCCATCGGAGGCAGTTCAAAGGGCTGTGTCAGACTGTTTACGGAGTCACCTAGTGCAG	3740 fluorescence intensity (a.u.)
